The record followed here is paper PMC7433898.

Chains of the proteins cited; added tags and fusions are not shown. Lines headed by an entry give the natural chain unless they say otherwise; changes in a name come on top.
UniProt Q16666: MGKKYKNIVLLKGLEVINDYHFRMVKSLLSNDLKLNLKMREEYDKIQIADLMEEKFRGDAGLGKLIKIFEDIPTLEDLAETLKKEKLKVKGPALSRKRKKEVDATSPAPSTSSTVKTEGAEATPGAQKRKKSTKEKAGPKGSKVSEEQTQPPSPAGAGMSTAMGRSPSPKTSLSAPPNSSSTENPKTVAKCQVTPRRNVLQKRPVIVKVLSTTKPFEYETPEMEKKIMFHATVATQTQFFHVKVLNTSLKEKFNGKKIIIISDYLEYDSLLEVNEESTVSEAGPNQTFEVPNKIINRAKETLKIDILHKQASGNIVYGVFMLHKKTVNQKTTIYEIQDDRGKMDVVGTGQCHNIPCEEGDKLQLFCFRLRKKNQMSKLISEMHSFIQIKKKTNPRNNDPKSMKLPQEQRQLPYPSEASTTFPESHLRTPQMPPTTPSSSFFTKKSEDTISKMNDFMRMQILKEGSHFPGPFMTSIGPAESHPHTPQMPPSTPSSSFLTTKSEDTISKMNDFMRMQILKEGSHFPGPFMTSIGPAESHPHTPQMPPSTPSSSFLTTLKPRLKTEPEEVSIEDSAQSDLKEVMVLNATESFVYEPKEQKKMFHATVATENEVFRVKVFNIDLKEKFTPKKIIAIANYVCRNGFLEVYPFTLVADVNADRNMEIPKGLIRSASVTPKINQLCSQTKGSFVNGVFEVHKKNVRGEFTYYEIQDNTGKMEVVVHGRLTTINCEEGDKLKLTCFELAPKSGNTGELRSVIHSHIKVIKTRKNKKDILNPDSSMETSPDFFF
UniProt P08047: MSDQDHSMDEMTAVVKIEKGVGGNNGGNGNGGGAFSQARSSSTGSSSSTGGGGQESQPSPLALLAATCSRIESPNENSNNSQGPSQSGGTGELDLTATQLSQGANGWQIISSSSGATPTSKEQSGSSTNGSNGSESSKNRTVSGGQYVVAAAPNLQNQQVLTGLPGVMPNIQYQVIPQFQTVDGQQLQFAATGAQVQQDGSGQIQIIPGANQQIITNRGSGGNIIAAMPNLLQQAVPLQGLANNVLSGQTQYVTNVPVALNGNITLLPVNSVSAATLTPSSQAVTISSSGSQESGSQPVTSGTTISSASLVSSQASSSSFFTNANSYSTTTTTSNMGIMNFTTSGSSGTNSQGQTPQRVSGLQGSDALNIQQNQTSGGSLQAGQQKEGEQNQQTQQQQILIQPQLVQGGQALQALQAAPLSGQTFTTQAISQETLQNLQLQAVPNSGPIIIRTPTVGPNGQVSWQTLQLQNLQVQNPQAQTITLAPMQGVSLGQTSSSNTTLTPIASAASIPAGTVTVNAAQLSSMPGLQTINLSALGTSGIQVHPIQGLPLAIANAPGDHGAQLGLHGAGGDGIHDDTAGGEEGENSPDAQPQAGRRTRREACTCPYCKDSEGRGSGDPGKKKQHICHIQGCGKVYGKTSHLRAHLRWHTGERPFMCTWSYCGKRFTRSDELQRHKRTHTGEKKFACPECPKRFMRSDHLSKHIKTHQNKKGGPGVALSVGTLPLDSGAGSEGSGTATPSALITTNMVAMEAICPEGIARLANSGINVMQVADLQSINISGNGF

Results are given in words; binding and its absence hold for the method and conditions named. Binding seen in cells or lysates may run through a third protein. Binding calls can cover weak binding; strength is not graded here.

In the experiment the target is HA-tagged IFI16 (human) (UniProt Q16666). As to the kind of experiment: co-IP; HEK293T cotransfected with C-FLAG tagged Sp1 mutants and HA-tagged IFI16; lysates pre-cleaned with beads; IFI16 immunoprecipitated with anti-HA overnight at 4°C, beads 4 h at 4°C; anti-FLAG blot.
In the case of “FLAG-tagged Sp1 with a deletion of the N-terminal region (from UniProt P08047)”, the binding entry is “binds”. As to “FLAG-tagged Sp1 with a deletion of transactivator domain A (from UniProt P08047)”, the binding result was “binds”.

On to “FLAG-tagged Sp1 with a deletion of the highly charged region (from UniProt P08047)”, for which the binding result is reported as “binds”.

With “FLAG-tagged Sp1 with a deletion of the C-terminus (from UniProt P08047)”, the binding result is listed as “binds”.

For “FLAG-tagged Sp1 with a deletion of the Zn-finger domain (from UniProt P08047)”, the binding entry is listed as “no binding”. In the case of “FLAG-tagged Sp1 with a deletion of transactivator domain B (from UniProt P08047)” it was “binds”.
